# No constants are given. Whether binding was seen depends on the method and setting. Binding calls can cover weak binding; strength is not graded here.
# By UniProt entry, the sequences of proteins in these tests, tags left out. Where a name states a change or a piece, a line headed by the entry shows the natural chain unless it says otherwise.
# UniProt Q16363: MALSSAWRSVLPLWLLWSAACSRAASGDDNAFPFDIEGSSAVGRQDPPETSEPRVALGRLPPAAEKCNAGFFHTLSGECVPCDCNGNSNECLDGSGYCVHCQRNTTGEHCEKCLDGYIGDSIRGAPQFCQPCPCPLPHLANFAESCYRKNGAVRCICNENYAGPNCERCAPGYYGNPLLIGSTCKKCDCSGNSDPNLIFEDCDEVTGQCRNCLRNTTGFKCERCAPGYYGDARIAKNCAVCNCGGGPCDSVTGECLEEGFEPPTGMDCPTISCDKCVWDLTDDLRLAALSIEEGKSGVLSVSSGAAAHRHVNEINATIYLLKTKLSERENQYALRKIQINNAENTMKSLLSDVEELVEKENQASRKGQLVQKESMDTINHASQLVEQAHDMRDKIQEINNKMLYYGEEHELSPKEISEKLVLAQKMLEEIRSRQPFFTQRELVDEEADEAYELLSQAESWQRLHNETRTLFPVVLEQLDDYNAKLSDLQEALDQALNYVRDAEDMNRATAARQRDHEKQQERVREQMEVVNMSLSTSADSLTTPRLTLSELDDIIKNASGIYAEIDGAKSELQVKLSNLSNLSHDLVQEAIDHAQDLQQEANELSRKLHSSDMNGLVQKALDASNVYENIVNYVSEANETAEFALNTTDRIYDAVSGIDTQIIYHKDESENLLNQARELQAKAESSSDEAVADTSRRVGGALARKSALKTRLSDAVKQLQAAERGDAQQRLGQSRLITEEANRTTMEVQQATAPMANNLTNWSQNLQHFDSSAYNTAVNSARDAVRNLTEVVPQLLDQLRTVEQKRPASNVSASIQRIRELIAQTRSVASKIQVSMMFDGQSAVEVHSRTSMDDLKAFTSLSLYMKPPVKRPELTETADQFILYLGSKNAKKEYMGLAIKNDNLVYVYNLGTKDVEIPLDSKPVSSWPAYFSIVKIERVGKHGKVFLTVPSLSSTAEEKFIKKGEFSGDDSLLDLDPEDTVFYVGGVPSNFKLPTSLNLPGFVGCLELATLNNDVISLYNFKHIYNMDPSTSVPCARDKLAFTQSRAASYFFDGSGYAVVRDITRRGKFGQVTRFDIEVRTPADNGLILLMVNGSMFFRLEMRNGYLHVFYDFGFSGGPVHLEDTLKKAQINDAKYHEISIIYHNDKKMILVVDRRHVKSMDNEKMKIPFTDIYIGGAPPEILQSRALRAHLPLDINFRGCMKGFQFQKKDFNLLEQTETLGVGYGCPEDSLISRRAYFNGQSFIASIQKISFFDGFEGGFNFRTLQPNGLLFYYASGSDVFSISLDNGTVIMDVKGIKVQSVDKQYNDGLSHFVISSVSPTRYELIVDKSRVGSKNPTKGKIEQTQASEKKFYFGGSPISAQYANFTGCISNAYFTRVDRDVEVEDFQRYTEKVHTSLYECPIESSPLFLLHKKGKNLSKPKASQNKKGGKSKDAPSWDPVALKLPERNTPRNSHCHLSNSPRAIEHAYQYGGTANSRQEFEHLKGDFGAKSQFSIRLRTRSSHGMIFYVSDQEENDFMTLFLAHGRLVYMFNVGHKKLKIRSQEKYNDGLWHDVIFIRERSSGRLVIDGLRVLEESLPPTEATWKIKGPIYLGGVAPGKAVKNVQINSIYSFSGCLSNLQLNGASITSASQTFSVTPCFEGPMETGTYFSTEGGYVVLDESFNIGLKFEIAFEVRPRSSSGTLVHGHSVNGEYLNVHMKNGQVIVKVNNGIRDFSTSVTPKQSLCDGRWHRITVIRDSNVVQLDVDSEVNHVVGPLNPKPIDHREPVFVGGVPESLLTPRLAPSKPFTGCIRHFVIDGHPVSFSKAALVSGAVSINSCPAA
# Target: laminin alpha 4 LG domain recombinant protein LAMA4_(826–1816) (human) (UniProt Q16363)
# Assay: ELISA; plates coated with 1 μg/mL recombinant laminin LG domain; 1 μg/mL GF added; bound GF detected with an antibody for each GF; BSA-coated wells as control; both purified
binder,measurement,value
"placental growth factor (PlGF)-2 (ligand, UniProt P49763-3 19-170) LPAVPPQQWALSAGNGSSEVEVVPFQEVWGRSYCRALERLVDVVSEYPSEVEHMFSPSCVSLLRCTGCCGDENLHCVPVETANVTMQLLKIRSGDRPSYVELTFSQHVRCECRPLREKMKPERRRPKGRGKRRREKQRPTDCHLCGDAVPRR",binding,binds
"PlGF-1 (ligand, UniProt P49763-2 19-149) LPAVPPQQWALSAGNGSSEVEVVPFQEVWGRSYCRALERLVDVVSEYPSEVEHMFSPSCVSLLRCTGCCGDENLHCVPVETANVTMQLLKIRSGDRPSYVELTFSQHVRCECRPLREKMKPERCGDAVPRR",binding,no binding (tested: 1 μg/mL)
